Reference: PMC9499959

Amino acid sequences for entries named in this document (tags omitted). A change or cut given only in a name is not applied to a line headed by its entry.
UniProt P79065: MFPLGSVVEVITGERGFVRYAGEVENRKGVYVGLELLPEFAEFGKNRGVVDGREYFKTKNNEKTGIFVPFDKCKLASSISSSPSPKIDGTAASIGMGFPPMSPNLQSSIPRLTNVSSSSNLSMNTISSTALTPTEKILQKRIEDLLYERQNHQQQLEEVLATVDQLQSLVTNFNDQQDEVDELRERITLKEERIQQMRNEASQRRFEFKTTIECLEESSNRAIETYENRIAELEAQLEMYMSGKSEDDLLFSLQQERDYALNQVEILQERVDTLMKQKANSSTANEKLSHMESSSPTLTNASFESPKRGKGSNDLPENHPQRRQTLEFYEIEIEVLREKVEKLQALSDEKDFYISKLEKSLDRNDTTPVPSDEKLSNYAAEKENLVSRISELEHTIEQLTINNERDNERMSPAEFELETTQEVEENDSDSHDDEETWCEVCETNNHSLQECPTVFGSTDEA

Target: T1, Dma1(1–173aa)-GFP (S. pombe) (UniProt Q10322)
T1 sequence: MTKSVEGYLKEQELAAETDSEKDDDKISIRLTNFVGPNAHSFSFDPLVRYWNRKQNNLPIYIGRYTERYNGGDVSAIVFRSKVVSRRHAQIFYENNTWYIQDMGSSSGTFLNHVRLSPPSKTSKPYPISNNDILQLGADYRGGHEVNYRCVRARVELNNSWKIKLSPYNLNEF
Experiment: co-IP; lysates of S. pombe cells expressing GFP-tagged Dma1 (whole or 1-173aa) and 6HA-tagged Tip1 (whole or truncated); NP-40 buffer; GFP fusion immunoprecipitated with anti-GFP, anti-HA blot

- binding: binds
Substance: C-terminus fragment of Tip1 covering 245-461aa, tagged with 6HA (from UniProt P79065) (domain or fragment)

Results are given in words; binding and its absence hold for the method and conditions named. Binding seen in cells or lysates may run through a third protein. Binding can be weak; no strength is given. Where a sequence is shown, tags or fusion partners need not be part of it.
